The record followed here is publication PMC7326919.

Amino acid sequences for entries named in this document (tags omitted). Residues count along the entry.
UniProt Q9R0P9: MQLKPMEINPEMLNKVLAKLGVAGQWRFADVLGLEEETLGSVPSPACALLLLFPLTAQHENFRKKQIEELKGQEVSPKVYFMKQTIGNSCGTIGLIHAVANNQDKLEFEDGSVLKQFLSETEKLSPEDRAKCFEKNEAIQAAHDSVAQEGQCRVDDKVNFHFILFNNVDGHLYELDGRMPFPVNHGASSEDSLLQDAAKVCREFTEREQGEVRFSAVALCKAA
UniProt P20029, residues 20-655: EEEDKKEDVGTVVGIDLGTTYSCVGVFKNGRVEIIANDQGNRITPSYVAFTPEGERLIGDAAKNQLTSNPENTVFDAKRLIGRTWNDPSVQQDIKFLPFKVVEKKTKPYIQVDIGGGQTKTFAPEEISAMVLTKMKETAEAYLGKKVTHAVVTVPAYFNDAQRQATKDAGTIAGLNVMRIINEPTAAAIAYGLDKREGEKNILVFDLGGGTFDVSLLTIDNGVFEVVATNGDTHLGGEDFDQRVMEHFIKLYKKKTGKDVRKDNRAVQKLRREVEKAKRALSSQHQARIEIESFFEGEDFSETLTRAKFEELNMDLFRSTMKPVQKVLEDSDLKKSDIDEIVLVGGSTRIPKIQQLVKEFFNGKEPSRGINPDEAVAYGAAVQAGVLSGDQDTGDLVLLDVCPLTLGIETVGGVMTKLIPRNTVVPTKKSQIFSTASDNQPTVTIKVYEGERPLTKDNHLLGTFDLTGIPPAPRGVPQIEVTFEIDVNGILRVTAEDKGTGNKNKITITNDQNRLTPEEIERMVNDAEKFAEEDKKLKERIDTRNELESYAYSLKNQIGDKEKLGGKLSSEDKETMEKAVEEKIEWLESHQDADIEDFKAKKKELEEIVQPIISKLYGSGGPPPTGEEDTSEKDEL

These are yes or no findings as the source states them, for the method shown. Binding seen in cells or lysates may run through a third protein. Some binding calls cover weakened binding; strength is not graded here.

The assay has as its target Ubiquitin C-terminal hydrolase L1 (mouse (endogenous in cardiac fibroblasts of C57BL/6 mice)) (UniProt Q9R0P9). The assay is described as follows: co-IP; lysate of CFs stimulated with TGF-β1; rabbit UCHL1 antibody, rabbit GRP78 antibody or rabbit isotype control IgG overnight at 4 °C, protein A/G magnetic beads 4 h at 4 °C, washed three times with lysis buffer, western blot.

In the case of “glucose-regulated protein of 78 kDa (from UniProt P20029 20-655)”, the binding result is recorded as “binds”.
